Taken from: PubChem BioAssay AID1508597 (Cure First, 2020)
Screen: 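Knock-downs altering ovarian cancer cell survival with or without PARP inhibitor rucaparib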 (primary screen). Cells: human ovarian carcinoma lines grown from tumours: OCI-P5x (papillary serous) and OCI-C5x (clear cell). Reagents: siRNA pool against human genes, 1.25 pmol siRNA per well. Time to read-out: 72 h or 96 h, depending on the cell culture. Conditions: rucaparib 20 µM (about IC30) or vehicle, present until read-out. Measurement: 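Luminescent ATP-based viability assay read 72 or 96 h after transfection, depending on culture, given as normalised percent viability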. Direction: viability, normalised: higher = more viable cells remaining. Active means: 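a well counts as a hit if its normalised viability is under 80 percent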. Calls: active = viability under 80%; inactive = viability 80% or more.
The whole screen tested about 2,100 reagents; this is a random part of them. 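Calls flag viability under 80% in either arm, not effects specific to rucaparib; the reference for percent is not stated.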 Reagent sequences are not shown. Not given: the 100% reference.

gene knocked down | rucaparib or vehicle | cell line | technical replicate | viability, normalised (%) | outcome
GDAP2 | Rucaparib | OCI-C5x (clear cell) | 1 | 34.5 | active
GDAP2 | Rucaparib | OCI-C5x (clear cell) | 2 | 24 | active
GDAP2 | Rucaparib | OCI-C5x (clear cell) | 3 | 43.2 | active
GDAP2 | Rucaparib | OCI-P5x (serous) | 1 | 56.8 | active
GDAP2 | Rucaparib | OCI-P5x (serous) | 2 | 69.4 | active
GDAP2 | Rucaparib | OCI-P5x (serous) | 3 | 64 | active
GDAP2 | Vehicle | OCI-C5x (clear cell) | 1 | 45.9 | active
GDAP2 | Vehicle | OCI-C5x (clear cell) | 2 | 40.9 | active
GDAP2 | Vehicle | OCI-C5x (clear cell) | 3 | 31.2 | active
GDAP2 | Vehicle | OCI-P5x (serous) | 1 | 52.2 | active
GDAP2 | Vehicle | OCI-P5x (serous) | 2 | 67.2 | active
GDAP2 | Vehicle | OCI-P5x (serous) | 3 | 66.6 | active
PSKH1 | Rucaparib | OCI-C5x (clear cell) | 1 | 63.5 | active
PSKH1 | Rucaparib | OCI-C5x (clear cell) | 2 | 45.9 | active
PSKH1 | Rucaparib | OCI-C5x (clear cell) | 3 | 43.2 | active
PSKH1 | Rucaparib | OCI-P5x (serous) | 1 | 90.3 | inactive
PSKH1 | Rucaparib | OCI-P5x (serous) | 2 | 98.2 | inactive
PSKH1 | Rucaparib | OCI-P5x (serous) | 3 | 74.2 | active
PSKH1 | Vehicle | OCI-C5x (clear cell) | 1 | 70.6 | active
PSKH1 | Vehicle | OCI-C5x (clear cell) | 2 | 62.6 | active
PSKH1 | Vehicle | OCI-C5x (clear cell) | 3 | 61.9 | active
PSKH1 | Vehicle | OCI-P5x (serous) | 1 | 87.4 | inactive
PSKH1 | Vehicle | OCI-P5x (serous) | 2 | 82.8 | inactive
PSKH1 | Vehicle | OCI-P5x (serous) | 3 | 59.9 | active
KMT5A | Rucaparib | OCI-C5x (clear cell) | 1 | 27.9 | active
KMT5A | Rucaparib | OCI-C5x (clear cell) | 2 | 21.5 | active
KMT5A | Rucaparib | OCI-C5x (clear cell) | 3 | 21.1 | active
KMT5A | Rucaparib | OCI-P5x (serous) | 1 | 47.3 | active
KMT5A | Rucaparib | OCI-P5x (serous) | 2 | 50.8 | active
KMT5A | Rucaparib | OCI-P5x (serous) | 3 | 40 | active
KMT5A | Vehicle | OCI-C5x (clear cell) | 1 | 15.8 | active
KMT5A | Vehicle | OCI-C5x (clear cell) | 2 | 19.5 | active
KMT5A | Vehicle | OCI-C5x (clear cell) | 3 | 25.5 | active
KMT5A | Vehicle | OCI-P5x (serous) | 1 | 40.5 | active
KMT5A | Vehicle | OCI-P5x (serous) | 2 | 60.4 | active
KMT5A | Vehicle | OCI-P5x (serous) | 3 | 66 | active
RPH3A | Rucaparib | OCI-C5x (clear cell) | 1 | 47.2 | active
RPH3A | Rucaparib | OCI-C5x (clear cell) | 2 | 35.2 | active
RPH3A | Rucaparib | OCI-C5x (clear cell) | 3 | 43.1 | active
RPH3A | Rucaparib | OCI-P5x (serous) | 1 | 33.8 | active
RPH3A | Rucaparib | OCI-P5x (serous) | 2 | 42.3 | active
RPH3A | Rucaparib | OCI-P5x (serous) | 3 | 37.3 | active
RPH3A | Vehicle | OCI-C5x (clear cell) | 1 | 42.7 | active
RPH3A | Vehicle | OCI-C5x (clear cell) | 2 | 28.6 | active
RPH3A | Vehicle | OCI-C5x (clear cell) | 3 | 40.8 | active
RPH3A | Vehicle | OCI-P5x (serous) | 1 | 49.3 | active
RPH3A | Vehicle | OCI-P5x (serous) | 2 | 56.5 | active
RPH3A | Vehicle | OCI-P5x (serous) | 3 | 55.5 | active

Laid out differently: entries from further up
gene knocked down,rucaparib or vehicle,cell line,technical replicate,"viability, normalised (%)",outcome
KMT5A,Vehicle,OCI-P5x (serous),2,60.4,active
KMT5A,Vehicle,OCI-P5x (serous),3,66,active
RPH3A,Rucaparib,OCI-C5x (clear cell),1,47.2,active
